Measurements taken from PubChem BioAssay AID504444 (National Center for Advancing Translational Sciences (NCATS), 2011).
Out of some 360,000 compounds screened, about 7,500 (2.1%) were called active. The inconclusive results got no clear call from the source; some entries with a clear call stand among them for comparison. Calls come from the whole dose curve; as a rule, active = well fitted inhibition curve with a large enough effect; inconclusive = small, poorly fitted or top-dose-only effect, or effect the other way; inactive = flat fitted curve, though single readings scatter. Potencies of inconclusive entries are doubtful fits and often do not repeat.
Potency is the fitted concentration of half-maximal effect.

Assay: Nrf2 qHTS screen for inhibitors; note: nearly all actives have a fitted effect of over 60% in size
Details: A549 ARE-Fluc reporter, luciferase luminescence, 18-24 h; series mostly up to 46 µM
Summary of the method: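 Two sequential reads on A549 ARE_Fluc cells exposed to compound for 18-24 h: a CellTiter-Fluor fluorescence read for viability, then a luciferase luminescence read for Nrf2/ARE activity.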
For `CCc1cc(C(=O)N2CCCC(CCC(=O)N3CCN(c4ccccn4)CC3)C2)no1` (stereo not given), the Potency was inconclusive: 25.9 µM [falling, partial curve, poor fit].
For `CC(C)c1ccc(NC(=O)COc2ccccn2)cc1`, the Potency was inconclusive: 14.6 µM [activator, partial curve].
With `Nc1cc(=O)[nH]c(SCC(=O)N2N=C(c3ccc4ccccc4c3)CC2c2ccccc2)n1` (stereo not given) the Potency was inconclusive: 29.1 µM [falling, single point].
For `COc1ccc2[nH]c(=O)c(CNc3ccc(C)cc3C)cc2c1`, the Potency was “inactive”.
For `CCCN1C(=O)C2(c3ccccc31)c1c(oc3cc(C)c(C)cc3c1=O)C(=O)N2CCCOC` (stereo not given), the Potency was “inactive”.
In the case of `CCCN1CCN(C(=S)Nc2ccc(SC(F)F)cc2)CC1`, the Potency is reported as inconclusive: 23.1 µM [falling, single point].
With `Cc1ccc(OCCCCc2c(C)n[nH]c2C)cc1` the Potency was inconclusive: 29.1 µM [falling, single point].
With `COC(=O)c1cccc(NC(=O)Nc2ccc(Cl)cc2)c1` the Potency was “inactive”.
With `COc1cccc(NC(=O)CC2(CC(=O)O)CCCC2)c1` the Potency was inconclusive: 2.06 µM [falling, partial curve].
In the case of `O=C(c1ccc([N+](=O)[O-])s1)N1CCN(c2ccccn2)CC1`, the Potency is reported as inconclusive: 20.6 µM [falling, single point].
With `Cc1ccc(-c2nnn(CC(=O)N(c3ccccc3)C(C(=O)NCC3CCCO3)c3ccc(Cl)cc3)n2)cc1` (stereo not given) the Potency was inconclusive: 0.731 µM [falling, full curve, poor fit].
For `CC(=O)Nc1cccc(C(=O)N/N=C/c2c[nH]c3ccccc23)c1`, the Potency was “inactive”.
With `CCOC(=O)C1=C(CN2CCN(C(=O)c3ccco3)CC2)NC(=O)NC1c1ccc(OC)cc1` (stereo not given) the Potency was inconclusive: 6.51 µM [falling, full curve, poor fit].
For `CCOc1ccc(C(=O)Nc2ccc(-c3nc4ccccc4[nH]3)cc2)cc1[N+](=O)[O-]`, the Potency was “inactive”.
For `S=c1[nH]c2ccccc2n1CCc1ccncc1`, the Potency was inconclusive: 0.0326 µM [falling, full curve, poor fit].
For `Cc1ccc(CNC(=O)C2CCCN(Cc3cnn(-c4ccccc4)c3-n3cccc3)C2)cc1` (stereo not given), the Potency was inconclusive: 29.1 µM [falling, single point].
In the case of `O=C(CC1C[C@H](C(=O)N2CCCCC2)[C@@]2(CCc3ccccc3)c3[nH]c4ccccc4c3CCN2C1=O)NCCC1=CCCCC1` (stereo not given in full), the Potency is reported as inconclusive: 6.51 µM [falling, single point].
For `Cn1nc(C(=O)Nc2ccc(-n3cnnn3)cc2)c2ccccc2c1=O`, the Potency was inconclusive: 8.2 µM [falling, partial curve, poor fit].
For `COc1cc(CNc2ccc(C(=O)O)cc2)cc(Br)c1OCC(=O)NC(C)(C)C`, the Potency was inconclusive: 6.51 µM [falling, partial curve, poor fit].
For `CC(=O)c1ccc(OCCCC(=O)NNC(=O)c2ccccn2)cc1`, the Potency was inconclusive: 20.6 µM [falling, single point].
With `COCCCNC(=S)N1CCN(c2nc(-c3ccc(F)cc3)cs2)CC1` the Potency was active: 14.6 µM.
For `CCS(=O)(=O)Nc1ccc(-c2cc(-c3ccccc3)c3cc(C)ccc3n2)cc1`, the Potency was active: 23.1 µM.
In the case of `Oc1c(Br)cc(C=Nc2ccc3nc(-c4ccccc4)[nH]c3c2)c(O)c1Br`, the Potency is reported as inconclusive: 14.6 µM [activator, partial curve, poor fit].
For `Cc1ccc2c(N)c(C(=O)N(c3ccccc3)c3ccccc3)sc2n1`, the Potency was inconclusive: 29.1 µM [falling, single point].
In the case of `CCOC(=O)CN1C(=O)C(O)(CC(=O)c2cccc(OC)c2)c2ccccc21` (stereo not given), the Potency is reported as inconclusive: 14.6 µM [activator, partial curve].
In the case of `O=C(Cn1nnc(-c2ccccc2)n1)Nc1cccc(S(=O)(=O)N2CCOCC2)c1`, the Potency is reported as inconclusive: 23.1 µM [falling, single point].
In the case of `O=C(Cn1ncc2c3ccccc3n(Cc3ccc(Cl)cc3)c2c1=O)NCCCN1CCCC1=O`, the Potency is reported as inconclusive: 23.1 µM [falling, partial curve, poor fit].
With `CC(NC(=O)C1CC1)C(c1cccs1)N1CCOCC1` (stereo not given) the Potency was “inactive”.
For `COc1ccc(Cc2nc(-c3cccnc3)no2)cc1OC`, the Potency was inconclusive: 23.1 µM [falling, single point].
In the case of `O=C(O)COc1ccccc1/C=C1\SC(=S)N(c2cccnc2)C1=O`, the Potency is reported as inconclusive: 25.9 µM [falling, single point].
With `Cc1cccn2c(=O)c(/C=C(\C#N)c3nc4ccccc4n3C)c(Oc3ccc(Cl)cc3)nc12` the Potency was inconclusive: 4.61 µM [activator, partial curve, poor fit].
With `Cc1ccc(NC(=S)NCc2ccc3c(c2)OCO3)c(C)c1` the Potency was “inactive”.
For `CCc1ccc(NC(=O)C2(C)Cc3ccccc3C(=O)O2)cc1` (stereo not given), the Potency was inconclusive: 23.1 µM [activator, partial curve].
For `O=C(Cn1ncn2c(cc3ccccc32)c1=O)NCCCc1ccccc1`, the Potency was inconclusive: 29.1 µM [activator, single point].
In the case of `O=C(CSc1nc2ccccc2o1)NCC1CCCO1` (stereo not given), the Potency is reported as inconclusive: 29.1 µM [activator, single point].
In the case of `COc1cccc(-c2cc(C(=O)Nc3ccc(F)cc3)[nH]n2)c1`, the Potency is reported as active: 2.59 µM.
With `Cc1ccccc1OCC(=O)Nc1ccc(Cc2ccncc2)cc1` the Potency was active: 13 µM.
With `O=C(Cn1cnc2c(NCc3ccccc3)ncnc21)N1CCN(c2ccccn2)CC1` the Potency was “inactive”.
For `Cc1ccc(NC(=O)C(=O)NN=C2CCCC2)cc1C`, the Potency was inconclusive: 5.8 µM [activator, partial curve, poor fit].
For `CCNC(=O)c1ccc(-n2c(-c3ccccc3)cc3c2CCCCC3)cc1`, the Potency was inconclusive: 29.1 µM [falling, single point].
For `COc1ccc([N+](=O)[O-])cc1NC(=O)C(C)Sc1ccccc1` (stereo not given), the Potency was “inactive”.
For `O=C(CC1C(=O)N(c2ccccc2)C(=O)N1CCc1cccs1)Nc1ccc(Cl)cc1` (stereo not given), the Potency was inconclusive: 29.1 µM [falling, single point].
In the case of `CCOc1ccc(C(=O)Nc2cc(C)ccn2)cc1`, the Potency is reported as inconclusive: 0.92 µM [activator, full curve, poor fit].
With `COc1cccc(CNC(=O)CCc2c(C)nn(-c3ccc(N4CCOCC4)nn3)c2C)c1` the Potency was inconclusive: 4.61 µM [activator, full curve].
With `COc1ccc(OC)c(NC(=O)CSc2nnnn2-c2ccccc2F)c1` the Potency was inconclusive: 0.0326 µM [activator, full curve, poor fit].
With `CC(=O)Nc1nonc1-c1nnc(SCc2ccc(C)cc2)n1C` the Potency was inconclusive: 29.1 µM [activator, single point].
For `Cc1ccc(C)c(NC(=O)C(Sc2nc3ccc(C)cc3[nH]2)c2ccccc2)c1` (stereo not given), the Potency was inconclusive: 25.9 µM [activator, single point].
For `O=C(/C=C/Nc1ccccc1C(F)(F)F)c1ccco1`, the Potency was inconclusive: 8.2 µM [activator, partial curve].
In the case of `O=C(Nc1cccc(C(F)(F)F)c1)N1CCN(C(=O)Nc2cccc(C(F)(F)F)c2)CC1`, the Potency is reported as “inactive”.
With `CCOc1ccc(N2CC(C(=O)Nc3cccc(S(=O)(=O)N4CCCCC4)c3)CC2=O)cc1` (stereo not given) the Potency was inconclusive: 29.1 µM [falling, single point].
In the case of `COc1ccc(Cc2nnc(CCc3ccccc3)s2)cc1`, the Potency is reported as inconclusive: 23.1 µM [activator, single point].
In the case of `CC(C)NC(=O)c1ccc(NC(=O)CC2SC(N3CCCC3)=NC2=O)cc1` (stereo not given), the Potency is reported as “inactive”.
In the case of `CN(C)S(=O)(=O)c1cccc(NC(=O)CCSc2ccc(Cl)cc2)c1`, the Potency is reported as inconclusive: 23.1 µM [falling, single point].
For `COc1cccc(CNC(=O)CCC2CCCN(C(=O)c3cc4ccccc4o3)C2)c1` (stereo not given), the Potency was inconclusive: 29.1 µM [falling, single point].
In the case of `Cc1ccc(N2C(=O)c3ccccc3C2Nc2ccc(S(=O)(=O)N3CCCCC3)cc2)nc1` (stereo not given), the Potency is reported as inconclusive: 20.6 µM [falling, single point].
In the case of `O=C(CNCc1ccc(F)cc1)Nc1cc(S(=O)(=O)N2CCOCC2)ccc1Cl`, the Potency is reported as inconclusive: 23.1 µM [falling, single point].
For `COC(=O)C(O)(CC(=O)c1ccc(OC)cc1)C(F)(F)F` (stereo not given), the Potency was inconclusive: 0.461 µM [falling, partial curve, poor fit].
For `COCCNC(=S)N1CCN(c2nc(-c3cccc(OC)c3)cs2)CC1`, the Potency was inconclusive: 16.4 µM [falling, single point].
For `O=C(Cc1ccc([N+](=O)[O-])cc1)Nc1cccc(C(=O)N2CCCC2)c1`, the Potency was inconclusive: 11.6 µM [falling, partial curve].
For `CC(C)NC(=O)CCc1nnc(Cc2cccc(C(F)(F)F)c2)o1`, the Potency was inconclusive: 25.9 µM [activator, single point].
In the case of `CCOc1ccc(NS(=O)(=O)c2ccc3c(c2)N(C(C)=O)CC3)cc1`, the Potency is reported as inconclusive: 2.06 µM [falling, full curve].
In the case of `Cc1cccc(Nc2nc(-c3ccccc3)cs2)n1`, the Potency is reported as inconclusive: 2.31 µM [activator, partial curve].
For `COc1ccc(CN(C(=O)c2ccc(-c3ccccc3)[nH]2)C(C(=O)NCC2CCCO2)c2ccc(C)o2)cc1` (stereo not given), the Potency was inconclusive: 23.1 µM [falling, single point].
With `O=C(Cc1ccc(Cl)cc1)Nc1ccc(S(=O)(=O)Nc2cnc3ccccc3n2)cc1` the Potency was inconclusive: 6.51 µM [activator, partial curve, poor fit].
With `CC(C)(C)NC(=O)CN(C(=O)Cn1nnc(-c2ccccc2F)n1)c1cccc2c1CCCC2` the Potency was inconclusive: 32.6 µM [falling, single point].
